Results from patent publication US20160193240A1, “Ulmoside-A: Useful For Prevention Or Cure Of Metabolic Diseases” (COUNCIL OF SCIENTIFIC & INDUSTRIAL RESEARCH, priority 2013, published 2016).

System: wistar rats
Assay: Dexamethasone induced loss of body weight and death in rats
Details: baseline
Protocol: All animal experiments were conducted in accordance with current legislation on animal experiments [Institutional Animal Ethical Committee (IAEC)] at C.D.R.I. In all animal experiments, rats were individually housed at 21° C., in 12-h light:12-h dark cycles. All animals had access to normal chow diet and water ad libitum.
Food intake was measured daily and the rats were weighed each week. The rats were fasted overnight (O/N) on day 14th and on day 15th oral glucose tolerance test was performed. Following oral glucose tolerance test (OGTT), rats were kept with food and water ad libitum for one day. On day 16th, rats were fasted again O/N and then euthanized. At autopsy, from 5 animals/group, tissues were collected and snap frozen in liquid nitrogen. Blood was collected from cardiac punctures. Plasma was separated from whole blood by centrifugation at 3000 rpm for 20 min immediately after collection of blood and stored at −80° C. until further analysis. […] (quadriceps) skeletal muscles were processed for RNA and protein extraction, followed by quantitative real-time PCR (QRT-PCR) analysis. Two animals from each group were used for photography post autopsy.

## O=C1c2c(cc(O)c([C@@H]3O[C@H](CO)[C@@H](O)[C@H](O)[C@H]3O)c2O)O[C@@H](c2ccc(O)c(O)c2)[C@@H]1O [ULMA, (2S,3S)-(+)-3′,4′,5,7-tetrahydroxydihydroflavonol-6-C-β-D-glucopyranoside]
Dex + ULMA-1 mg group
  Initial body weight: 178.9 ± 2.4 g
Dex + ULMA-5 mg group
  Initial body weight (g): 180.7 ± 3.2 ^ g
